Measured values: article PMC3197640, “Human Engineered Heart Tissue as a Versatile Tool in Basic Research and Preclinical Toxicology” (PLoS ONE, 2011)

Test system: human engineered heart tissue (hEHT)
Method: Calcium-concentration response curves were established in DMEM, 1% penicillin/streptomycin, 10 mM HEPES, and 100 µM acetylcysteine with calcium concentrations adjusted to the desired final concentration (0.2–3.0 mmol/L). Equilibration time was 20 minutes. Measurements were performed under spontaneous activity by automated video-optical recording and analysis (customized software, Consulting Team Machine Vision) as previously described. Contractile force F was calculated from the degree of post deflection δ (µm), silicone post length (L) and radius (R) and elastic modulus (E) by the formula F = 3πER^4δ/4L^3 [29]. Contraction- and relaxation velocities were calculated as the average maximal steepness of twitch contraction or relaxation, respectively. Each value represents the mean of all measurable contraction twitches in the recording period of 60 seconds per hEHT.
EHTs were equilibrated in DMEM, 1% penicillin/streptomycin, 10 mM HEPES, 100 µM acetylcysteine for one hour. […] Isoprenaline and carbachol were used at 100 nM and 10 µM, respectively.
Intervals between two contractions were determined for all recordings. […] Interval scatter was therefore defined as the length between 10th and 90th percentile (interdecile range, IDR). Statistical difference between groups of biological replicas were determined with Mann-Whitney U Test (*P<0.05).

Q: Which results are given for `Cc1cccc(CCN2CCC(C(=O)c3ccc(NS(C)(=O)=O)cc3)CC2)n1` [E-4031]?
A: Concentration at which force of contraction and contraction velocity declined significantly: 30 nM; Threshold concentration at which the compound significantly decreased relaxation velocity: 3 nM; Threshold concentration inducing irregular beating patterns (RR-scatter): 10 nM
